Measurements reported in PubChem BioAssay AID540335 (Broad Institute, 2011).
Out of some 1,300 compounds screened, about 270 (21%) were called active.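 How the source made its calls: active means dose-dependent rise or fall in viability, either side of zero, with half-maximal concentration at or below a set limit; inconclusive means flat curve at 30 to 70% viability loss, or poor fit; inactive means flat within 30% either way, or potency beyond limit.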 Some of the results follow. Measured potencies and affinities stand elsewhere.

Experiment: proliferation inhibition in MITF-low A375 cells – cell-based, cherry-pick samples, set 2, counter-screen for MITF modulator project, dose response (AID 540335);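 further: A375 human melanoma cells which do not depend on MITF; 0% = median of neutral control wells and 100% = double that signal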
Conditions: CellTiter-Glo ATP luminescence, 24 h; at 35 µM (top of the series)
In the case of `O=C(Nc1ccc2nc(-c3ccccc3)[nH]c2c1)c1ccco1`, the activity change, negative = decreased viability is reported as inactive: -0.11%.
For `CC(=O)Nc1ccc(NC(=O)c2nc(S(=O)(=O)Cc3ccccc3)ncc2Cl)cc1`, the activity change, negative = decreased viability was inactive: -26.8%.
In the case of `O=C(COC(=O)c1ccc(F)c([N+](=O)[O-])c1)NC(=O)NCc1ccccc1`, the activity change, negative = decreased viability is reported as inactive: -14.4%.
With `CCOc1ccc(-c2ccc(SC)nn2)cc1` the activity change, negative = decreased viability was inactive: -38.4%.
With `O=C(Nc1ccc2c(c1)OCCO2)c1ccoc1` the activity change, negative = decreased viability was inactive: 6.88%.
For `CCCCN(CC)CCCNC(=O)c1cc2c(=O)n(CC)c3ccccc3c2s1`, the activity change, negative = decreased viability was inactive: -4.43%.
For `Cc1ccc(OCCNCc2ccccc2)c(C)c1`, the activity change, negative = decreased viability was inactive: 3.67%.
In the case of `CC1CN(N=Cc2ccc([N+](=O)[O-])o2)C(=N)O1` (configuration not stated), the activity change, negative = decreased viability is reported as inactive: -4.37%.
For `CC(C)S(=O)(=O)c1csc(C(=O)Nc2ccc(F)cc2)c1N`, the activity change, negative = decreased viability was inactive: -0.729%.
In the case of `COc1ccc2oc(=N)c(C(=O)Nc3ccccc3Cl)cc2c1`, the activity change, negative = decreased viability is reported as inactive: 7.03%.
For `CN(C(=O)/C=C/c1ccc([N+](=O)[O-])s1)c1ccccc1`, the activity change, negative = decreased viability was inactive: -12.6%.
In the case of `COc1ccccc1N(C(=O)CCl)c1cn(C(C)=O)c2ccccc12`, the activity change, negative = decreased viability is reported as inactive: -14%.
In the case of `Cc1ccc(C(=O)NC2=NCCS2)cc1Cl`, the activity change, negative = decreased viability is reported as inactive: -0.554%.
With `COc1ccc(NC(=O)C2COc3ccccc3O2)cc1` (configuration not stated) the activity change, negative = decreased viability was inactive: -6.15%.
For `CN1CCN(CCCOc2ccc(-c3ccccc3)cc2)CC1`, the activity change, negative = decreased viability was inactive: -0.67%.
With `Cc1cc(C(=O)Nc2cccc(C(=O)O)c2)oc1C` the activity change, negative = decreased viability was inactive: -8.99%.
With `O=C(Cn1ncc(Cl)c(Cl)c1=O)N1CCN(Cc2ccccc2)CC1` the activity change, negative = decreased viability was inactive: 62.3%.
In the case of `CCOC(=O)C1(Cc2ccccc2)CCCN(CCCn2cccn2)C1` (configuration not stated), the activity change, negative = decreased viability is reported as inactive: 2.85%.
In the case of `O=[N+]([O-])c1c(NCCCO)cc(Sc2ccc(Cl)cc2)c2nonc12`, the activity change, negative = decreased viability is reported as inactive: -22.9%.
With `CCSc1nc2c(cnn2-c2ccccc2)c(=O)n1N` the activity change, negative = decreased viability was inactive: -0.732%.
For `Cc1ccc(C(=O)N/N=C\c2ccc([N+](=O)[O-])s2)cn1`, the activity change, negative = decreased viability was inactive: -30.2%.
In the case of `Cc1ccc(NC(=O)Cc2noc3ccccc23)cc1`, the activity change, negative = decreased viability is reported as inactive: 12.6%.
In the case of `CCN1CCN(/C=N/c2nc3c(s2)CCCC3)CC1`, the activity change, negative = decreased viability is reported as inactive: 3.19%.
For `Cc1ccc(-c2c[n+](Cc3ccc(Cl)c(Cl)c3)c3n2CCC3)cc1`, the activity change, negative = decreased viability was inactive: -14.8%.
With `COc1cccc(CNc2nc3ccccc3n2C)c1O` the activity change, negative = decreased viability was inactive: 4.14%.
For `O=C(CSc1ccccn1)c1ccc2c(c1)OCO2`, the activity change, negative = decreased viability was inactive: 9.9%.
In the case of `O=C(CNC(=O)c1ccccc1)N/N=C/c1ccc([N+](=O)[O-])s1`, the activity change, negative = decreased viability is reported as inactive: -17.8%.
In the case of `Cc1ccccc1Cn1c(=N)n(CC(=O)c2ccc([N+](=O)[O-])cc2)c2ccccc21`, the activity change, negative = decreased viability is reported as inactive: -72.3%.
With `CC(C)n1cc(/C=C/c2cc[n+](C)cc2)c2ccccc21` the activity change, negative = decreased viability was inactive: -9.9%.
In the case of `Cn1c(SCC(=O)N/N=C/c2ccc([N+](=O)[O-])s2)nnc1-c1ccccc1`, the activity change, negative = decreased viability is reported as inactive: -30.7%.
In the case of `CCOc1cc(/C=C2/NC(=S)NC2=O)ccc1OCc1ccc([N+](=O)[O-])cc1`, the activity change, negative = decreased viability is reported as inactive: -36.1%.
With `Cc1ccc(NC(=O)c2cc3cccc([N+](=O)[O-])c3[nH]2)cc1` the activity change, negative = decreased viability was inactive: 4.69%.
In the case of `Cc1ccc(-n2nnnc2Sc2nc([N+](=O)[O-])nn2C)c(C)c1`, the activity change, negative = decreased viability is reported as inactive: -0.377%.
For `NNC(=O)c1cc2ccccc2cc1O`, the activity change, negative = decreased viability was inactive: 3.09%.
In the case of `COc1ccc(C(C(=O)NC2CCCCC2)N(C(=O)CCl)c2ccc(OC)cc2)cc1` (configuration not stated), the activity change, negative = decreased viability is reported as inactive: -7.56%.
For `C=C1C(=O)O[C@@H]2[C@H]1[C@@H](OC(=O)/C(C)=C/C)C/C(C)=C\C(=O)/C=C(\C)[C@@H]2O`, the activity change, negative = decreased viability was inactive: 75.7%.
With `FC(F)(F)Oc1ccc(-c2cn3cccnc3n2)cc1` the activity change, negative = decreased viability was inactive: 2.8%.
For `N=c1n(CC(=O)c2ccc([N+](=O)[O-])cc2)c2ccccc2n1Cc1ccccc1Cl`, the activity change, negative = decreased viability was inactive: -48.1%.
For `Cc1nc2ccccc2n1/N=C/c1ccc([N+](=O)[O-])s1`, the activity change, negative = decreased viability was inactive: -9.11%.
With `CC1(C)CC(=O)C=C(NC2=CC3OC(c4ccccc4)OCC3OC2=O)C1` (configuration not stated) the activity change, negative = decreased viability was inactive: 7.2%.
For `COc1cc2c(c(OC)c1OC)-c1ccc(OC)c(=O)cc1C(NC(C)=O)CC2` (configuration not stated), the activity change, negative = decreased viability was inactive: 15.7%.
For `O=C(NC1CCCCC1)C(c1cccnc1)N(C(=O)CCl)c1cccc(Cl)c1` (configuration not stated), the activity change, negative = decreased viability was inactive: -17%.
With `O=c1nc(N/N=C/c2ccccn2)cn[nH]1` the activity change, negative = decreased viability was inactive: -38.7%.
In the case of `Cc1ccc(OCC(=O)Nc2ccccc2F)cc1`, the activity change, negative = decreased viability is reported as inactive: 9.43%.
With `Cc1ccc(-c2cc3onc(-c4ccccc4)c3c(=O)n2C)cc1` the activity change, negative = decreased viability was inactive: -12.6%.
With `COc1cccc(/C=C/C(=O)c2ccc3c(c2)OCCO3)c1OC` the activity change, negative = decreased viability was inactive: -0.491%.
For `CC(=O)NC1=C(N(C)C2CCS(=O)(=O)C2)C(=O)c2ccccc2C1=O` (configuration not stated), the activity change, negative = decreased viability was inactive: -28.4%.
